Some of the results follow.
What was measured:
Assay in all cases: log2 fold change, soluble protein after heating vs DMSO (PISA); higher = thermal stabilisation; K562 lysate, 10 uM; active = over 0.2 and 3.5 SD of the protein, either way, in both replicates (recomputed)
[1] = compound: C1=CC=C(C=C1)[C@H](COC2=CC3=C(C=C2)NC(=O)N3)NC(=O)C4=CC=CN(C4=O)CC5=CC(=C(C=C5)F)F
How it was run: (§1)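 Quantification was by TMTpro 16plex LC-MS/MS with equalised channel sums, applied to the supernatant after 21,000xg for 90 min. Samples were crude K562 extract at 1 mg/mL protein in PBS pH 7.4 with 1 mM MgCl2, treated with 10 μM compound for 30 min, heated for 3 min across 48°C-58°C, pooled and brought to 0.5% NP-40 at 4°C. Values are log-two fold changes in thermal stability relative to solvent controls, from duplicates.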

By UniProt entry, the sequences of proteins in these tests, tags left out. Where a name states a change or a piece, a line headed by the entry shows the natural chain unless it says otherwise.
UniProt Q06033: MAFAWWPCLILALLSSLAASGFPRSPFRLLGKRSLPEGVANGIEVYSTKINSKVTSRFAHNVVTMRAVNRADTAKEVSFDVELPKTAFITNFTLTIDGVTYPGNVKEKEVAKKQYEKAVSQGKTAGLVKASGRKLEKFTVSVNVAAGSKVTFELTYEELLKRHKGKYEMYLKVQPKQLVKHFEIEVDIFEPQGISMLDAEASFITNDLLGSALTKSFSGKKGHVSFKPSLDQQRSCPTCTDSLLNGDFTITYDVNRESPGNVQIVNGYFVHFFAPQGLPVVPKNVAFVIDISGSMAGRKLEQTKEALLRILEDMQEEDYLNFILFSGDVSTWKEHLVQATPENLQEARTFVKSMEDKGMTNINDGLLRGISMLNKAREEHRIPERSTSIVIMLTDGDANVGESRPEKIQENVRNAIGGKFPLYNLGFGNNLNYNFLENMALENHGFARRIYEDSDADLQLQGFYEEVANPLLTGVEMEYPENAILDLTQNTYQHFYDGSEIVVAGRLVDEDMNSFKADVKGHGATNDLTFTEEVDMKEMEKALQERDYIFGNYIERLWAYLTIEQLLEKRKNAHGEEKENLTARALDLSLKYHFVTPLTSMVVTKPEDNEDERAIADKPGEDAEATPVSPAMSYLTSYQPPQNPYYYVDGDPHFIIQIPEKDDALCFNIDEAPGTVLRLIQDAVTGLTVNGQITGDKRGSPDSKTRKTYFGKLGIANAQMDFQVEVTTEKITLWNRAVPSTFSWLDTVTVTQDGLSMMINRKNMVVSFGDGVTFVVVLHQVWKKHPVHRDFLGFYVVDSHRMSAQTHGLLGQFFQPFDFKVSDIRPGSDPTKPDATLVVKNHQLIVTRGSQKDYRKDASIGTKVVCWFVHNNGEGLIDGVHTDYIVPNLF
UniProt O75449: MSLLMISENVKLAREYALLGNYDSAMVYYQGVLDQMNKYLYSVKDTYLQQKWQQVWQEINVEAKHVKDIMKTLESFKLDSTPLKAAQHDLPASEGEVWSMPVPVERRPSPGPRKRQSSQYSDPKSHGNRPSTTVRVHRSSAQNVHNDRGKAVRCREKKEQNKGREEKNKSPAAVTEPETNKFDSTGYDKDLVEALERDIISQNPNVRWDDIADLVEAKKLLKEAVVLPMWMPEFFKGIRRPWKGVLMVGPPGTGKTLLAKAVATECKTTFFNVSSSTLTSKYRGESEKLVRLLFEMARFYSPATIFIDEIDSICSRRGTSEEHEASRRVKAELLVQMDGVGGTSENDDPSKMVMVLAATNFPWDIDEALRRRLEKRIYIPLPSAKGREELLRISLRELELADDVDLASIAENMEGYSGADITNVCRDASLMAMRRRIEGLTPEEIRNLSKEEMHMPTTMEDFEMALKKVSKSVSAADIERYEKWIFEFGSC
UniProt Q92993, whole entry, looked up: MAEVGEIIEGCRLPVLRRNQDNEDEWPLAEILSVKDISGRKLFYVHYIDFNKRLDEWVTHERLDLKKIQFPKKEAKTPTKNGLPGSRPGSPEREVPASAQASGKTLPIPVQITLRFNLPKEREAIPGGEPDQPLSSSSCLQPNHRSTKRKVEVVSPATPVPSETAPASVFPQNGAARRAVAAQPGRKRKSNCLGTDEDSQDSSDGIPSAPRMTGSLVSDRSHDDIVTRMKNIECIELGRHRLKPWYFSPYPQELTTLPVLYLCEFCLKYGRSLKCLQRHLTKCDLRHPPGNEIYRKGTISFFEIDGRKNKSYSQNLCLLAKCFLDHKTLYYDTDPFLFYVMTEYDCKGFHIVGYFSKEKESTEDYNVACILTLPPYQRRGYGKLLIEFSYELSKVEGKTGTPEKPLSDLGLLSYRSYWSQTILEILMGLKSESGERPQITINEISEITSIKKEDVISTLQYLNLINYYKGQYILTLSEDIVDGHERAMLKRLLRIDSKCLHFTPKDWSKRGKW
UniProt Q8IY47: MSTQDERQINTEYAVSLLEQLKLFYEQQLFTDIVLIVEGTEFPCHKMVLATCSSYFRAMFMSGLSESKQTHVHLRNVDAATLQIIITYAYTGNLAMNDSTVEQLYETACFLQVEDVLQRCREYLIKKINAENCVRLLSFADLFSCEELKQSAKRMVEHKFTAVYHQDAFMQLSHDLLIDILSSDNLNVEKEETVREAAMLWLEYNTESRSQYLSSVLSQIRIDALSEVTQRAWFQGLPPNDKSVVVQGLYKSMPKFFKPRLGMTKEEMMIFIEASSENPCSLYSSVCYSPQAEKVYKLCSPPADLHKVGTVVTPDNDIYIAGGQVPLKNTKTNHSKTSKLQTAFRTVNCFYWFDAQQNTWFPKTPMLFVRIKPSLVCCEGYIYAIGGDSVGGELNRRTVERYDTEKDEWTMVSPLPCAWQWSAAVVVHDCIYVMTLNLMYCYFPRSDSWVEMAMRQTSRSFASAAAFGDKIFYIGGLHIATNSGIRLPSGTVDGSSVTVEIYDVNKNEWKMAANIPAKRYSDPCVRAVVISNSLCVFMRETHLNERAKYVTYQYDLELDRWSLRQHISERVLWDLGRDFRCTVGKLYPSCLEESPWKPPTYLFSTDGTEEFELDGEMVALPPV
UniProt Q9NWZ3, whole entry, looked up: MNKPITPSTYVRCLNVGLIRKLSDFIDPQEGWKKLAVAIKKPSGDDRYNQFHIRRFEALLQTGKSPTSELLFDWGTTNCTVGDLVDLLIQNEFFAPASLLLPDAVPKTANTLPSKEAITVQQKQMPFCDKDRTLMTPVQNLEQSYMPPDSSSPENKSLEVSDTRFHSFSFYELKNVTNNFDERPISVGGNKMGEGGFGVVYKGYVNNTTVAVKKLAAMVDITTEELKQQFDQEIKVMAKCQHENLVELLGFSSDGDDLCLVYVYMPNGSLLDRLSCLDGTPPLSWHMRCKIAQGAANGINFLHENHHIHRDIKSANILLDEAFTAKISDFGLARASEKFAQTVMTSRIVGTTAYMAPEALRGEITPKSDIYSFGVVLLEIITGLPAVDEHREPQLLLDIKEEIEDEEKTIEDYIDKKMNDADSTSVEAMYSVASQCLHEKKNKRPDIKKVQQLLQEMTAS
UniProt P23677, whole entry, looked up: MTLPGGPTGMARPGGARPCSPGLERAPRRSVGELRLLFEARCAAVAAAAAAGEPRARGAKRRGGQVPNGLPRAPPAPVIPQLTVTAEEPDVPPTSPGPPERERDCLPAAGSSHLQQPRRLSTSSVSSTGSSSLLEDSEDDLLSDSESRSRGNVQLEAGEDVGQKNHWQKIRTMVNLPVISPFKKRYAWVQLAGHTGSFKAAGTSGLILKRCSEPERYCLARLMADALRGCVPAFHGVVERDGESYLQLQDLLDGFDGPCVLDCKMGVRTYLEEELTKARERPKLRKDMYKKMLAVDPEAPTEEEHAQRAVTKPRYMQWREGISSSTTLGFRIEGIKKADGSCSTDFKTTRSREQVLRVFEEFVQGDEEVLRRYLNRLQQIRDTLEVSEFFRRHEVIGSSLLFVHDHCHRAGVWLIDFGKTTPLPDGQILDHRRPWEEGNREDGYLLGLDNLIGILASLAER
UniProt P53990, whole entry, looked up: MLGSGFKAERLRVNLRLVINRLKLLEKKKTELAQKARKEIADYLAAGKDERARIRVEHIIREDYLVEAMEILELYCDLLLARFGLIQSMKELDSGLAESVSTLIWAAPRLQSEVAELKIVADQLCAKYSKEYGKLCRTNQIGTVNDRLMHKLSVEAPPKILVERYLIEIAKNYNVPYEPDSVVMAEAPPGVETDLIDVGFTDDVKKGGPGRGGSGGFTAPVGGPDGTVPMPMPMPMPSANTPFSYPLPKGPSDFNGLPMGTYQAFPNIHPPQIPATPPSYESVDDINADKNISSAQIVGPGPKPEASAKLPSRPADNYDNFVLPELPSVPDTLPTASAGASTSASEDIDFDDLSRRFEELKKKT
UniProt Q8WVZ9: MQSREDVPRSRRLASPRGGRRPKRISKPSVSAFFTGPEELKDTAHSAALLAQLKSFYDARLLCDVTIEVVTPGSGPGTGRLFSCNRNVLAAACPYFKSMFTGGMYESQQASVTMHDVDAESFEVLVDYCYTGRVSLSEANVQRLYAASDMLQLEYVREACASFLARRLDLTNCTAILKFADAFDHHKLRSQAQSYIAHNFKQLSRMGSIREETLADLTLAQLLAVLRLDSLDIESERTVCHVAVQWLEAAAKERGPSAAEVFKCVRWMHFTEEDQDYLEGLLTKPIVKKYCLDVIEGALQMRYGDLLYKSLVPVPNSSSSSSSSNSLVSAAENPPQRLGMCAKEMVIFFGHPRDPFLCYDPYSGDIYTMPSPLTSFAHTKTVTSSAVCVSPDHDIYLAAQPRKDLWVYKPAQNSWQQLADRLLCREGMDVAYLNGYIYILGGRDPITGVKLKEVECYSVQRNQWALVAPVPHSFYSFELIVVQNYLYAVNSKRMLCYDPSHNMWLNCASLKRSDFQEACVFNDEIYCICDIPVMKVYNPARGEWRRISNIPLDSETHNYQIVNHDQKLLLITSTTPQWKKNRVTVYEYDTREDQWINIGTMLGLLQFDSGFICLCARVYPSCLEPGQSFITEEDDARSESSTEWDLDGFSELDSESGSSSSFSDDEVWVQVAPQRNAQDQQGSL
UniProt Q9NV88, whole entry, looked up: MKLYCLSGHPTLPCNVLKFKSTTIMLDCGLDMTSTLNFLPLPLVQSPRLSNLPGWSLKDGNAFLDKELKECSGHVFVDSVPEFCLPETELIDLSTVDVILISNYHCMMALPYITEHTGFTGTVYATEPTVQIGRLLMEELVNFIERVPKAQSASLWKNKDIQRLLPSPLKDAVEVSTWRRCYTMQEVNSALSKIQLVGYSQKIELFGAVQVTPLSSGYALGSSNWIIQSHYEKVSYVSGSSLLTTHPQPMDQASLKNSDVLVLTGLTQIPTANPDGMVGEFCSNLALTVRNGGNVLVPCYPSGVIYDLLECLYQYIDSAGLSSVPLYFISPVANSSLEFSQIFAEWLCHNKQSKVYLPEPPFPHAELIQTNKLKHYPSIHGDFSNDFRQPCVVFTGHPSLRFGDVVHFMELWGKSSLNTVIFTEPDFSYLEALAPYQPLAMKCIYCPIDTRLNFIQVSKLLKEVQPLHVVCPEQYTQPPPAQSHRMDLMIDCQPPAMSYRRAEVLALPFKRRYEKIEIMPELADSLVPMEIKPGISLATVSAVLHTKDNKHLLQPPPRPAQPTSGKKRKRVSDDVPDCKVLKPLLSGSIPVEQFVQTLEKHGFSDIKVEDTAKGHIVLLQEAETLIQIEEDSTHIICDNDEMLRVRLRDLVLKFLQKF

[2] = compound: CC1=C(SC2=C1C(=N[C@H](C3=NN=C(N32)C)CC(=O)N)C4=CC=C(C=C4)Cl)C
How it was run: as §1

[3] = compound: CC1=C2C(=CC=C1)N=C(N(C2=O)C3=CC=CC=C3C)CN4C=NC5=C(N=CN=C54)N
How it was run: as §1

[4] = compound: Cc1sc2c(c1C)C(c1ccc(Cl)cc1)=N[C@@H](CC(=O)OC(C)(C)C)c1nnc(C)n1-2
How it was run: as §1

[5] = compound: c1ccc([C@@H]2C[C@H]2NC2CCNCC2)cc1
How it was run: as §1

Measured: log2 fold change

ITIH3 (UniProt Q06033)
inactive: [1] -0.014 | [2] 0.107

KATNA1 (UniProt O75449)
inactive: [1] -0.015 | [2] 0.009 | [3] -0.02 | [4] 0.006 | [5] -0.001

KAT5 isoform 3 (UniProt Q92993)
inactive: [1] 0.026 | [2] -0.026 | [3] 0.065 | [4] 0.058 | [5] 0.016

IPO9 (UniProt Q96P70)
inactive: [1] -0.007 | [2] 0 | [3] -0.002 | [4] -0.014 | [5] -0.044

KBTBD2 (UniProt Q8IY47)
inactive: [1] 0.016 | [2] -0.005 | [3] 0.025 | [4] 0.012 | [5] -0.119

IRAK4 (UniProt Q9NWZ3)
inactive: [1] -0.02 | [2] -0.014 | [3] 0.022 | [4] -0.08 | [5] -0.024

ITPKA (UniProt P23677)
inactive: [1] -0.022 | [2] 0.006 | [3] -0.017 | [4] -0.012 | [5] -0.013

IST1 (UniProt P53990)
inactive: [1] -0.008 | [2] 0.009 | [3] 0.03 | [4] 0.01 | [5] 0.044

KBTBD7 (UniProt Q8WVZ9)
inactive: [1] -0.061 | [2] 0.034 | [3] 0.022 | [4] -0.033

INTS9 (UniProt Q9NV88)
inactive: [1] 0.004 | [2] -0.009 | [3] -0.05 | [4] -0.01 | [5] 0.005

— the supplement of paper PMC10849652
